# Results reported in article doi:10.1101/2022.09.15.508094.
# Chains of the proteins cited; added tags and fusions are not shown.
# UniProt O93309, whole entry: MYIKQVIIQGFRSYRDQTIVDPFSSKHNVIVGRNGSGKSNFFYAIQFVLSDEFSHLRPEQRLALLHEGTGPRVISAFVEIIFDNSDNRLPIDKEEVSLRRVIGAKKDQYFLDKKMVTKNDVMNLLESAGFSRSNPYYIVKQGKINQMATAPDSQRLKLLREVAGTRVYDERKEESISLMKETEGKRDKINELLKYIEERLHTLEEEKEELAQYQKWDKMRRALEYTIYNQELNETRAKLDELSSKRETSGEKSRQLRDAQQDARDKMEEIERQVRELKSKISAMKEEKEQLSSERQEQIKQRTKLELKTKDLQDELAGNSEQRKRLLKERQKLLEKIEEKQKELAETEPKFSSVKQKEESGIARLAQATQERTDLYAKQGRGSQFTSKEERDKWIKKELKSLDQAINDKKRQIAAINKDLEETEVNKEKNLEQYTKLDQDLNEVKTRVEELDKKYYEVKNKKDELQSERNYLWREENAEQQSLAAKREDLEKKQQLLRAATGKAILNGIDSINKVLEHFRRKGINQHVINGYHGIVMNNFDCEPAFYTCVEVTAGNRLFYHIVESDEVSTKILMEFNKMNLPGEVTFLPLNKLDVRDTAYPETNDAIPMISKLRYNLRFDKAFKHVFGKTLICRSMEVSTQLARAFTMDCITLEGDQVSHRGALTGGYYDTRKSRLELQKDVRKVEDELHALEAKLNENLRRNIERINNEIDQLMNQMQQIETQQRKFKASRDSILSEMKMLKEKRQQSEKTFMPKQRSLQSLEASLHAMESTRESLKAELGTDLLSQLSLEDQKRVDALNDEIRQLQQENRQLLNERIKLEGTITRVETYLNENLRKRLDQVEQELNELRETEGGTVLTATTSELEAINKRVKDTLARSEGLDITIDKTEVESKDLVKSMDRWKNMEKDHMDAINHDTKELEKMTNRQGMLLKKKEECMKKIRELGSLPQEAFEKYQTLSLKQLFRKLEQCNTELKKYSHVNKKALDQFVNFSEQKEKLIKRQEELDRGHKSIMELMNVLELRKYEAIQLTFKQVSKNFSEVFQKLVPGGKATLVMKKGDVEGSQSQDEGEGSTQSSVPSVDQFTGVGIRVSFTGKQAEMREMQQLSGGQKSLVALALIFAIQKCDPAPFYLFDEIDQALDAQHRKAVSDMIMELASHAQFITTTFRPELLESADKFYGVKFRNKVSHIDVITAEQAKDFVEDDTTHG
# Results are given in words; binding and its absence hold for the method and conditions named. Some entries that bind do so weakly or less than the wild type. Tags and fused reporters may be left off the sequences shown.
# Molecular target: T1, XRAD21-8xHis (Xenopus laevis) (UniProt O93310)
# T1 sequence: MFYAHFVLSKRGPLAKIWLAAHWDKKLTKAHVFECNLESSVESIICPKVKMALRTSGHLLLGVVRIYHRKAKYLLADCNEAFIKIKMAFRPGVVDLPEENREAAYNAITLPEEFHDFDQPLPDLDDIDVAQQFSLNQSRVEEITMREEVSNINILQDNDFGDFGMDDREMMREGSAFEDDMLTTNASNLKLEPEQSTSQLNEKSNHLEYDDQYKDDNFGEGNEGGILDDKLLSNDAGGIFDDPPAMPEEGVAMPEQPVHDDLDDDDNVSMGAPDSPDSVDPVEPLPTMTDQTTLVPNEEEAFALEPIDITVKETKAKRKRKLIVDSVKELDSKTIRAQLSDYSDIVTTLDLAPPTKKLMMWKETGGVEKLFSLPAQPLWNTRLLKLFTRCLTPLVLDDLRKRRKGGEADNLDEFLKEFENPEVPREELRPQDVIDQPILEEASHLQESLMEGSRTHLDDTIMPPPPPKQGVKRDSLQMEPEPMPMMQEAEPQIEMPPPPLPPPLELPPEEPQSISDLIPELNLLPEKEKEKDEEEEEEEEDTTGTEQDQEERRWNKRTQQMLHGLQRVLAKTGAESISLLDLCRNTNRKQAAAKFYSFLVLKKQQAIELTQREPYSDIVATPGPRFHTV
# Assay: co-purification
substance,measurement,value
XSMC3-Halo-Flag (from UniProt O93309 1-1209),binding,binds
